# Test results: patent US10428030B2, “Heterocycle derivatives and their use for the treatment of CNS disorders” (Trillium Therapeutics Inc., priority 2015, dated 2019)
# Tested on: Male Sprague-Dawley rats
# Test: Maximal Electroshock Seizure (MES) rat model
# Format: in vivo
# Details: protective index, rotorod vs MES, rat po
# Protocol: Male, Sprague-Dawley rats and CD-1 mice were used for all studies. All animals were allowed ad-lib access to food and water except during experiment. Animals were housed within an animal vivarium maintained under a 12 h light:dark cycle (lights on: 07:00 h), and all experiments were conducted in the animals light phase. For all experiments, animals were habituated to the vivarium for a minimum of 72 h before experimentation. The experimental procedures used in the present investigation were conducted under the Association for Assessment and Accreditation of Laboratory Animal Care (AAALAC) and the Canadian Council on Animal Care (CCAC) guidelines.
# All compounds were sonicated in 5% Tween 80® in saline or methylcellulose 0.5% (wgt/vol), using MC and sterile water and injected in a dose volume of 5 ml/kg or 10 ml/kg (rat), and 10 ml/kg (mouse). Drugs were administered by either the oral, intraperitoneal or intravenous route.
# Male Sprague-Dawley rats of body weight 80-100 g were used for these studies. Each experiment was conducted over 3 consecutive days. On day 1 and 2, each rat received a single electrical stimulus (150 mA, 0.2 s duration, 60 Hz) via corneal electrodes moistened with saline (Shock stimulator type 221: Harvard apparatus). […] Typically this reflected approximately 70-90% of the initial group. […]
row,Compound,PI
1,O=C1COc2cc(OCc3ccc(OC(F)F)cc3)ccc2N1 [Compound I(B)],>25
2,"O=C1Nc2ccc(OCc3ccccc3)cc2OC1(F)F [I(D), 7-Benzyloxy-2,2-difluoro-4H-benzo[1,4]oxazin-3-one]",>3.9

# Tested on: Frings audiogenic seizure-susceptible mice
# Test: Frings audiogenic seizure (AGS)-susceptible mouse model
# Format: in vivo
# Details: TD50 in mice and ED50 in Frings mice
# From the text: Frings audiogenic seizure (AGS)-susceptible mice model examines the ability of an investigational drug to alter the onset and/or severity of seizures in a genetic mouse model of seizure susceptibility. Mice are genetically susceptible to sound-induced reflex seizures. Their seizure phenotype is characterized by wild running, loss of righting reflex, tonic flexion, and tonic extension in response to high-intensity sound stimulation. […] For example, the prototypical anticonvulsants phenytoin and ethosuximide display widely divergent clinical spectrums in humans, but are both active against sound-induced seizures in mice. Yet, the preclinical utility of this animal model rests in the useful information that can be obtained within a genetically susceptible model of seizures. Further, efficacy in this model provides proof of concept of brain bioavailability following systemic administration. The Frings AGS-susceptible mouse has a well-validated epilepsy phenotype that makes it particularly useful as a screening model. Beginning at about 21 days of age, Frings AGS-susceptible mice display prominent seizure activity in response to a high-intensity sound stimulus. They then remain susceptible to sound throughout their life. This is in stark contrast to the DBA2J AGS-susceptible mouse, which is the other common model of sound-induced seizures, as DBA2J mice are only susceptible to sound-induced seizures during a narrow developmental window (post-natal days 18-30). Thus, the Frings AGS-susceptible mouse seizures respond to a wide range of CNS-active drugs and display sound-induced seizures throughout their lifetime. In this regard, Frings AGS-susceptible mice are a highly useful screening model for the identification and characterization of compounds potentially effective against inherited epilepsy.
# Male and female Frings audiogenic seizure-susceptible mice (18-25 g) are maintained in an in-house colony at the University of Utah. For each screening test, groups of 8 mice each are treated i.p. with varying doses of the investigational compound. At the time of peak effect as determined in the MES test (Test 4 in CF1 mice), individual mice are placed in a round plexiglass jar (diameter, 15 cm, height, 18 cm) and exposed to a sound stimulus of 110 decibels (11 KHz) delivered for 20 sec. Mice are observed for 25 sec for the presence or absence of hind limb tonic extension. Mice not displaying hind limb tonic extension are considered protected. The severity of a seizure may also be quantitated by assigning a numerical score to the observed response, e.g. no response—0; wild running for <10 sec—1; wild running for >10 sec—2; clonic seizure—3; forelimb extension/hind limb flexion—4; tonic seizure—5.
row,Compound,P.I (TD50/ED50)
1,NC(=O)N1c2ccccc2C=Cc2ccccc21 [Carbamazepine],4.1
2,CCC1(C)CC(=O)NC1=O (stereo not shown) [Ethosuximide],1
3,O=C1COc2cc(OCc3ccc(OC(F)F)cc3)ccc2N1 [Compound I(B)],77
4,O=C1NC(=O)C(c2ccccc2)(c2ccccc2)N1 [Phenytoin],11
5,NCC1(CC(=O)O)CCCCC1 [Gabapentin],>5.5
6,Nc1nnc(-c2cccc(Cl)c2Cl)c(N)n1 [Lamotrigine],13
7,NC(=O)OCC(COC(N)=O)c1ccccc1 [Felbamate],22
8,CCCC(CCC)C(=O)O [Valproic Acid],2.6
